No constants are given. Whether binding was seen depends on the method and setting. For part of these data: In cells and extracts the contact can be indirect. Some results given as binding are weak or reduced against the parent protein; the word gives no strength.
Columns and labels:
[1] = biological target: AD-HAB1 fusion protein (Arabidopsis) (UniProt Q9CAJ0); test: yeast two-hybrid, X-gal stain, 10 µM pyrabactin
[2] = biological target: AD-HAB1 fusion protein (Arabidopsis) (UniProt Q9CAJ0); test: yeast two-hybrid, X-gal stain, 10 µM (+)-ABA or 10 µM pyrabactin
[3] = biological target: AD-HAB1 fusion protein (Arabidopsis) (UniProt Q9CAJ0); test: yeast two-hybrid, X-gal stain, with ABA
[4] = biological target: GST-HAB1 (Arabidopsis) (UniProt Q9CAJ0); test: His-tag pull-down, purified 6×His-PYR1 and GST-HAB1, SDS-PAGE
[5] = biological target: GST-ABI1 (UniProt P49597); test: His-tag pull-down, purified 6×His-PYR1 and E. coli lysate holding GST-ABI1, SDS-PAGE
[6] = biological target: GST-ABI2 (UniProt O04719); test: His-tag pull-down, purified 6×His-PYR1 and E. coli lysate holding GST-ABI2, SDS-PAGE

The chains behind the UniProt entries cited, without tags or fusion partners. Where a name states a change or a piece, a line headed by the entry shows the natural chain unless it says otherwise. Residues count along the entry.
UniProt Q9CAJ0, residues 23-511: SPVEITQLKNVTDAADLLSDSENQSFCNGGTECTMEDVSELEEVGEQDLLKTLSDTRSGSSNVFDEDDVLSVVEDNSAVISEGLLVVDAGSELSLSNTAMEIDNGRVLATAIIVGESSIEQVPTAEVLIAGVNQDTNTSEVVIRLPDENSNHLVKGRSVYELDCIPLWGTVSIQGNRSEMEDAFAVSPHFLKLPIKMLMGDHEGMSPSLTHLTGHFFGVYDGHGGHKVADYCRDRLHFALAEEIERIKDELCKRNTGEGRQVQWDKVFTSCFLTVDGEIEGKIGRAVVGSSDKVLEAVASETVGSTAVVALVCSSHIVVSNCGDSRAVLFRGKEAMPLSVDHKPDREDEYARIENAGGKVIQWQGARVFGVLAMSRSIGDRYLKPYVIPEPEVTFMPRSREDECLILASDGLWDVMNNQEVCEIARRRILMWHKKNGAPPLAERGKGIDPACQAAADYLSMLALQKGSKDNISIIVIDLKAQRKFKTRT
UniProt P49597: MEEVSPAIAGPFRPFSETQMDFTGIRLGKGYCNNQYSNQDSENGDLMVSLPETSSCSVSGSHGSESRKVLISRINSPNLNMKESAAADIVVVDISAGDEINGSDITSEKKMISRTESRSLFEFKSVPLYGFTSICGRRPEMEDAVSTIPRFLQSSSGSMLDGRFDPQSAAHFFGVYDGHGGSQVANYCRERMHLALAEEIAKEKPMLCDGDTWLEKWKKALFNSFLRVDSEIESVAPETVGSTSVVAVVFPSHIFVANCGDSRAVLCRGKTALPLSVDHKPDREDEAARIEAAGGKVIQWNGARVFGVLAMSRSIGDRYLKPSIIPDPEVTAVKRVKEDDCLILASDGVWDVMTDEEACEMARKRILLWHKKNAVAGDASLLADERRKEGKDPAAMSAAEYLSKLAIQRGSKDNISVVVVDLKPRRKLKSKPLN
UniProt O04719: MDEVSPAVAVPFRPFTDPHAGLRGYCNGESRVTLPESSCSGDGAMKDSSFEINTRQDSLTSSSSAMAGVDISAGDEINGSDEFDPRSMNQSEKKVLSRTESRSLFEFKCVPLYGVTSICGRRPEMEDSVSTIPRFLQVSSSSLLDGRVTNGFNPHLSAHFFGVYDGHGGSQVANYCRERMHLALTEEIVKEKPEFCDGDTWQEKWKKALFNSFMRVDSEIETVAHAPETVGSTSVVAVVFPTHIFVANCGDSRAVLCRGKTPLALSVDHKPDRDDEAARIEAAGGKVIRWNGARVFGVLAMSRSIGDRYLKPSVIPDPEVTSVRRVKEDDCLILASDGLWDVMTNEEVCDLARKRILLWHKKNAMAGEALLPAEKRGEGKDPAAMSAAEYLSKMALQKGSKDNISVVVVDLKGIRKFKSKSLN
UniProt O49686: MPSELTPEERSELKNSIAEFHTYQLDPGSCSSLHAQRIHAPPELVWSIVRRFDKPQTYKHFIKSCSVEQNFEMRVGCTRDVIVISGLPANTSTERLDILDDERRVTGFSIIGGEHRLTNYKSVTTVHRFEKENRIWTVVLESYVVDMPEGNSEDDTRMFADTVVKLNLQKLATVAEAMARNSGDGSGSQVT

For “BD-PYR1 fusion protein (from UniProt O49686 1-191) (receptor)”, the binding [1] was “binds” and the binding [2] was “binds”.

With “PYR1^R157H (yeast two-hybrid construct) (from UniProt O49686 1-191) (receptor)” the binding [3] was “binds”.

“6×His-PYR1 (from UniProt O49686 1-191) (receptor)” was tested, and the binding [4] was “binds”, the binding [5] was “binds” and the binding [6] was “binds”.

Source: patent US20130324409A1
